# Assay results published in PMC7317717, “Electrophysiological Characterization of Transport Across Outer‐Membrane Channels from Gram‐Negative Bacteria in Presence of Lipopolysaccharides” (Angewandte Chemie (International Ed. in English), 2020).
# Biological target: T1, OmpF (OmpF-WT) (Escherichia coli, UniProt P02931)
# T1 construct: purified wild-type OmpF, mature porin, homotrimer, reconstituted in planar lipid bilayer; OMV form overexpressed in E. coli BL21(DE3)omp8
# T1 sequence (P02931 23-362): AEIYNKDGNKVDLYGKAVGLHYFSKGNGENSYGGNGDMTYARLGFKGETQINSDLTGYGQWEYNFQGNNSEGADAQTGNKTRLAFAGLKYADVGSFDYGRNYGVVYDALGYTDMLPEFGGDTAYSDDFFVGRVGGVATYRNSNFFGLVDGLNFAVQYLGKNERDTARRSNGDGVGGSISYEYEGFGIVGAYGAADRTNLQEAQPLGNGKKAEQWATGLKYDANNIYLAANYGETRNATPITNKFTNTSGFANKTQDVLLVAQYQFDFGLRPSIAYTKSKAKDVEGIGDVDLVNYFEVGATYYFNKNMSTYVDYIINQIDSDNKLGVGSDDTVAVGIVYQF
# Assay: single-channel electrophysiology, planar lipid bilayer, ion current blockage events
# Type: binding
# Conditions: purified OmpF; 250 uM compound; 1 M KCl, 20 mM MES, pH 6
structure (smiles),measurement,value
O=C(O)c1cn(C2CC2)c2cc(N3CCNCC3)c(F)cc2c1=O [Ciprofloxacin],event rate,"In case of Ciprofloxacin, no significant change in the event rate was observed"
